Results are given in words; binding and its absence hold for the method and conditions named. A result given as binding can be weak or reduced; the word gives no strength.
Biological target: VEGFR-1 (overexpressed from Lenti-VEGFR-1, mutation in the ATP-binding site) (UniProt P17948)
Test: radioligand binding; saturation binding: gradient concentrations of 188Re-labelled peptide on A549 cells transfected with Lenti-VEGFR-1 or mock vehicle, 2 h; inhibited group with 30 ug non-labelled peptide added 30 min before; washed with ice-cold PBS with 0.1% BSA; gamma counter; only the binder purified

The chains behind the UniProt entries cited, without tags or fusion partners. Where a name states a change or a piece, a line headed by the entry shows the natural chain unless it says otherwise.
UniProt P17948: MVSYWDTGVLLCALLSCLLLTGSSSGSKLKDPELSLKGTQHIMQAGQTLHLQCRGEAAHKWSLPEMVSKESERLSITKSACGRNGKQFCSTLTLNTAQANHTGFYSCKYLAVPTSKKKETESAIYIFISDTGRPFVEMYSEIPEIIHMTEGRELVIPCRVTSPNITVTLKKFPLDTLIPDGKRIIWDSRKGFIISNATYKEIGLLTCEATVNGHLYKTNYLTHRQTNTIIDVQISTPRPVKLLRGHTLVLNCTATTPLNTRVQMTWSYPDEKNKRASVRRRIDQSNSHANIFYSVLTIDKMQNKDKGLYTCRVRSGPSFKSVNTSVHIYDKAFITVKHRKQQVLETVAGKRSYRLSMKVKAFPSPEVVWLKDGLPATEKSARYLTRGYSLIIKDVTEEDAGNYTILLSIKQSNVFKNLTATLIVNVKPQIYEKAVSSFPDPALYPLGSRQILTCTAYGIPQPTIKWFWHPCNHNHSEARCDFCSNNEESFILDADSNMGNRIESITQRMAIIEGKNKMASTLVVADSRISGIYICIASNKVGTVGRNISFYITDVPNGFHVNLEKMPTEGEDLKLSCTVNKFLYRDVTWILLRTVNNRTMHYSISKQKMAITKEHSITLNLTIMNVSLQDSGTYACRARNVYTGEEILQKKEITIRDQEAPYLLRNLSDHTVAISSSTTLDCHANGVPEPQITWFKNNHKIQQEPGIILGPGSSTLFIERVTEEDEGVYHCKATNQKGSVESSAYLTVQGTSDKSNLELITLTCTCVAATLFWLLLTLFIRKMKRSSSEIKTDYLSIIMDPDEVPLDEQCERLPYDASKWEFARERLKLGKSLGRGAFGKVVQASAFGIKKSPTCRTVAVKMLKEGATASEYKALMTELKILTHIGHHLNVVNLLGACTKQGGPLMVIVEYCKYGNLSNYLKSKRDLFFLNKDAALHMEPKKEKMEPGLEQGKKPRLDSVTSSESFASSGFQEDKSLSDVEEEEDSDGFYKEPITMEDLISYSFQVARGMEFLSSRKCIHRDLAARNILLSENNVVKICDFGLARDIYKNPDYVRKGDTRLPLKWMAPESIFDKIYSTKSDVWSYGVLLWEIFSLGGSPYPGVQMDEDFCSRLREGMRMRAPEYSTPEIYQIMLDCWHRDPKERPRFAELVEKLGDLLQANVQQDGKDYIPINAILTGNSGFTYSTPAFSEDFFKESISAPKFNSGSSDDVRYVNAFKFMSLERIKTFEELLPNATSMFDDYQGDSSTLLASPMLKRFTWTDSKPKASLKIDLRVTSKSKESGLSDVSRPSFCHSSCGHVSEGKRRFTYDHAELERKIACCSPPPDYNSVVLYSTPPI

**Q.** For QKRKRKKSRKKH (ethylene cysteine (EC) conjugated as chelating agent, 188Re-labelled), which binding is on record?
**A.** The binding was “binds”.

**Q.** For RKRKRKKSRYIVLS (ethylene cysteine (EC) conjugated as chelating agent, 188Re-labelled), which binding is on record?
**A.** The binding was “binds”.

**Q.** Which binding does the source give for QKRKRKKSRKKH here?
**A.** Its binding is “binds”.

**Q.** How did the binding turn out when RKRKRKKSRYIVLS was run?
**A.** Its binding is “binds”.

Source: article PMC5487319 (Scientific Reports, 2017)
